Literature values in patent US7358226B2, “Ultrasonic concentration of drug delivery capsules” (The Regents of the University of California, priority 2003, dated 2008).
At least one structure is not confirmed: it was looked up by name or label, or the drawing left a doubt.

System: tumor
Conditions: co-administration of paclitaxel (intravenous) and Valspodar (peroral)

**Q.** For `C/C=C/C[C@@H](C)C(=O)[C@H]1C(=O)N[C@@H](C(C)C)C(=O)N(C)CC(=O)N(C)[C@@H](CC(C)C)C(=O)N[C@@H](C(C)C)C(=O)N(C)[C@@H](CC(C)C)C(=O)N[C@@H](C)C(=O)N[C@H](C)C(=O)N(C)[C@@H](CC(C)C)C(=O)N(C)[C@@H](CC(C)C)C(=O)N(C)[C@@H](C(C)C)C(=O)N1C` [Valspodar], which “reduction of tumor volume” value is on record?
**A.** 90%
